Test results reported in PMC12837008.
Results are given in words; binding and its absence hold for the method and conditions named. Binding seen in cells or lysates may run through a third protein. Here binding means that the protein was enriched with, or labelled near, the bait; the list need not be complete. Where a sequence is shown, tags or fusion partners need not be part of it.

By UniProt entry, the sequences of proteins in these tests, tags left out. Where a name states a change or a piece, a line headed by the entry shows the natural chain unless it says otherwise. Residues count along the entry.
UniProt P11717, residues 41-2491: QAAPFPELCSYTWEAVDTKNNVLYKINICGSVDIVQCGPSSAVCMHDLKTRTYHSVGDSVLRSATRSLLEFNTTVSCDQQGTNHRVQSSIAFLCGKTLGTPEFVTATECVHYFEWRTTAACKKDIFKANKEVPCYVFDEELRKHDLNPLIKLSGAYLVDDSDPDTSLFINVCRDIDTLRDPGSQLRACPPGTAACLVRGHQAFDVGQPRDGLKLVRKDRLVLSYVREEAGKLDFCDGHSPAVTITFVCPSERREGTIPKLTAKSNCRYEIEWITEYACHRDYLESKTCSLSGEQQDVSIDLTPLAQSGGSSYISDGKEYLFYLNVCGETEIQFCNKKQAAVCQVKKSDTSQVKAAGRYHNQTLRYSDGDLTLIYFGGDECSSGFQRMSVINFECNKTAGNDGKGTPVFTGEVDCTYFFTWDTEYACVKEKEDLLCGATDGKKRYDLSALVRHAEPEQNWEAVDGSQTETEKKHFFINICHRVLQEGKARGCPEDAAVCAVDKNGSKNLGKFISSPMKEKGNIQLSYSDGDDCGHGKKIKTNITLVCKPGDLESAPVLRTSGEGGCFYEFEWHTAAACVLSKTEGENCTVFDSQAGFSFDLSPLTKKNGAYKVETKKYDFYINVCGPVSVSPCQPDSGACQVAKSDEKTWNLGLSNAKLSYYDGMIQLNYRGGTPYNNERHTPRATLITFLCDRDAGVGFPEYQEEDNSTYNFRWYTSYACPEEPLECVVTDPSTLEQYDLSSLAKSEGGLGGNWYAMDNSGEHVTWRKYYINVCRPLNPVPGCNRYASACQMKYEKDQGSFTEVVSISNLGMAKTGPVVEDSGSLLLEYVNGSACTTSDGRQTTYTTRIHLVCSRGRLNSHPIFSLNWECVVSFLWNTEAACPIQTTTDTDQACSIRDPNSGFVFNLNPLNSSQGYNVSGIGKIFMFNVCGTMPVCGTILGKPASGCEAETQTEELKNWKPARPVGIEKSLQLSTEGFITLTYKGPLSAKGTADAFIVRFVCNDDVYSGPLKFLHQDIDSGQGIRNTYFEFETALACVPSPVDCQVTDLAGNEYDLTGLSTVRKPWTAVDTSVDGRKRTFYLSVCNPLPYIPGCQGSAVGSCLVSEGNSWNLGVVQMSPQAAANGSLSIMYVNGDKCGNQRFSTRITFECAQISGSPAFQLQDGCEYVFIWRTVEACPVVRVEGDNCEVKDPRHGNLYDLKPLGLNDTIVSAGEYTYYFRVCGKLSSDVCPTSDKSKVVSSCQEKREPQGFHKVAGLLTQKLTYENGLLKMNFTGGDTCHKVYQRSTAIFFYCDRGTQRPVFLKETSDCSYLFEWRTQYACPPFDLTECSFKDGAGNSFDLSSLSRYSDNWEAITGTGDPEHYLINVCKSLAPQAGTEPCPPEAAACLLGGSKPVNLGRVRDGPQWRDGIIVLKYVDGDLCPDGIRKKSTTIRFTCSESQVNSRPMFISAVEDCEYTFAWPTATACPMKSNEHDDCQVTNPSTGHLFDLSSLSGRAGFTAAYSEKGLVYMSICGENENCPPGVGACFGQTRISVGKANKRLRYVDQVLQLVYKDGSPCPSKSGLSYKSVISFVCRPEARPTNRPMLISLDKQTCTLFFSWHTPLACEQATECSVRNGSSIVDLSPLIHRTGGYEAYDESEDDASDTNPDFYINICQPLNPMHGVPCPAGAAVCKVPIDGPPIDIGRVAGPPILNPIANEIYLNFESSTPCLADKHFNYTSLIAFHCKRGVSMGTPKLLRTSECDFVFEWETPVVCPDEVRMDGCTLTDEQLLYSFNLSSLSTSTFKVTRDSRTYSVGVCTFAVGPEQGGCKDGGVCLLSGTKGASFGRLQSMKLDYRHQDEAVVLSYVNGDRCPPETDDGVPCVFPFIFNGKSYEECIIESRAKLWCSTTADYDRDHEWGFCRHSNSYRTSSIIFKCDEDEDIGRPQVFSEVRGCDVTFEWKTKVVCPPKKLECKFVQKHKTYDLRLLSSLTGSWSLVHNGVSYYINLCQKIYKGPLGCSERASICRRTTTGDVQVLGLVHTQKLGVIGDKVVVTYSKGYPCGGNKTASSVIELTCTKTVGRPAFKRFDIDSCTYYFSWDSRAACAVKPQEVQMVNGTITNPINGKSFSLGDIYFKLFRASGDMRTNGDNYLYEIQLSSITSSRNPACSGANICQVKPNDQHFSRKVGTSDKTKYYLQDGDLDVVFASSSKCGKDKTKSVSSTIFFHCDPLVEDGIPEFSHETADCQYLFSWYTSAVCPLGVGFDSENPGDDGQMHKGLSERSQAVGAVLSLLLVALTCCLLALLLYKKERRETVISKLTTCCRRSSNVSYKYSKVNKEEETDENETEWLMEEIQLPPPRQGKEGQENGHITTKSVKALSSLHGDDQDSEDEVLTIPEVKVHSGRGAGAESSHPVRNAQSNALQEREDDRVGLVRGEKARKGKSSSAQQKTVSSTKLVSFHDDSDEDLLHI
UniProt P07686: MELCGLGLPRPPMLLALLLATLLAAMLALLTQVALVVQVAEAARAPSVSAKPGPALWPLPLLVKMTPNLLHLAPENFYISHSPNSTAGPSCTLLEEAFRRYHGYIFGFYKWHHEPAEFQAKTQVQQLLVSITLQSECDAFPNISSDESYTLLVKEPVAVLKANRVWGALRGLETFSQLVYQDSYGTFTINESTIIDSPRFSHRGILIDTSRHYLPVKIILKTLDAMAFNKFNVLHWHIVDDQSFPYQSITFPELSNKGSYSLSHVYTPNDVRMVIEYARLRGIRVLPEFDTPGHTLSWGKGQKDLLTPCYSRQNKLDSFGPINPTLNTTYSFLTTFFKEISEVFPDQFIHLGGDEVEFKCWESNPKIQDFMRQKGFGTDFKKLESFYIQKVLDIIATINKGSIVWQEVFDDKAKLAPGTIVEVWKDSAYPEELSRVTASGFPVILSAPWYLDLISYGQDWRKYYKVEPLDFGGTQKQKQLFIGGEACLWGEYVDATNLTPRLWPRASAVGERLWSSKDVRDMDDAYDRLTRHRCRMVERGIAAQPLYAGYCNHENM
UniProt Q9H1D0: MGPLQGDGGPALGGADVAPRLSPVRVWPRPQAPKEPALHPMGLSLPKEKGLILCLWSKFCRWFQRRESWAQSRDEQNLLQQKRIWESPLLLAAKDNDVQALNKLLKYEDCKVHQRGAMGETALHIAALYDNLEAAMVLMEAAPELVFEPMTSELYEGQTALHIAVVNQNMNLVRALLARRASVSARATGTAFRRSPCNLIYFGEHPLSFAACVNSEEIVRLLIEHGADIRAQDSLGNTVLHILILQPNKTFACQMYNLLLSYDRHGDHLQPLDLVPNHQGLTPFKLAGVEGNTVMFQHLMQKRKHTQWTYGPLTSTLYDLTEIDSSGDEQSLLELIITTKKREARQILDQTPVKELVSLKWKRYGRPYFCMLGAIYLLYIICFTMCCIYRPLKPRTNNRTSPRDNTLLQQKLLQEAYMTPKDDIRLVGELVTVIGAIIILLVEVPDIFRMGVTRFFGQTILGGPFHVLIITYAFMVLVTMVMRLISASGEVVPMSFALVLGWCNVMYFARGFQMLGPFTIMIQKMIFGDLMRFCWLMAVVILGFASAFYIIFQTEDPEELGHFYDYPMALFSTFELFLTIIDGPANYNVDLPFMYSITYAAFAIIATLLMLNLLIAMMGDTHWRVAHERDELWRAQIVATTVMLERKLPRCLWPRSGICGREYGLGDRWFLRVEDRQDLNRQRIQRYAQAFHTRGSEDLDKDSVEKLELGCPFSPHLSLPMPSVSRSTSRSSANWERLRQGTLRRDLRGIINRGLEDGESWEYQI

B1: beta-Glucoronidase (BGLR) (enzyme, UniProt P08236 23-651)
chain: LQGGMLYPQESPSRECKELDGLWSFRADFSDNRRRGFEEQWYRRPLWESGPTVDMPVPSSFNDISQDWRLRHFVGWVWYEREVILPERWTQDLRTRVVLRIGSAHSYAIVWVNGVDTLEHEGGYLPFEADISNLVQVGPLPSRLRITIAINNTLTPTTLPPGTIQYLTDTSKYPKGYFVQNTYFDFFNYAGLQRSVLLYTTPTTYIDDITVTTSVEQDSGLVNYQISVKGSNLFKLEVRLLDAENKVVANGTGTQGQLKVPGVSLWWPYLMHERPAYLYSLEVQLTAQTSLGPVSDFYTLPVGIRTVAVTKSQFLINGKPFYFHGVNKHEDADIRGKGFDWPLLVKDFNLLRWLGANAFRTSHYPYAEEVMQMCDRYGIVVIDECPGVGLALPQFFNNVSLHHHMQVMEEVVRRDKNHPAVVMWSVANEPASHLESAGYYLKMVIAHTKSLDPSRPVTFVSNSNYAADKGAPYVDVICLNSYYSWYHDYGHLELIQLQLATQFENWYKKYQKPIIQSEYGAETIAGFHQDPPLMFTEEYQKSLLEQYHLGLDQKRRKYVVGELIWNFADFMTEQSPTRVLGNKKGIFTRQRQPKSAAFLLRERYWKIANETRYPHSVAKSQCLENSLFT
B2: lysosomal-Pro-X-carboxypeptidase (PCP, PRCP) (enzyme, UniProt P42785 46-496)
chain: KNYSVLYFQQKVDHFGFNTVKTFNQRYLVADKYWKKNGGSILFYTGNEGDIIWFCNNTGFMWDVAEELKAMLVFAEHRYYGESLPFGDNSFKDSRHLNFLTSEQALADFAELIKHLKRTIPGAENQPVIAIGGSYGGMLAAWFRMKYPHMVVGALAASAPIWQFEDLVPCGVFMKIVTTDFRKSGPHCSESIHRSWDAINRLSNTGSGLQWLTGALHLCSPLTSQDIQHLKDWISETWVNLAMVDYPYASNFLQPLPAWPIKVVCQYLKNPNVSDSLLLQNIFQALNVYYNYSGQVKCLNISETATSSLGTLGWSYQACTEVVMPFCTNGVDDMFEPHSWNLKELSDDCFQQWGVRPRPSWITTMYGGKNISSHTNIVFSNGELDPWSGGGVTKDITDTLVAVTISEGAHHLDLRTKNALDPMSVLLARSLEVRHMKNWIRDFYDSAGKQH
B3: N-acetylcosamin-6-sulfatase (GNS) (enzyme, UniProt P15586 37-552)
chain: VFGVAAGTRRPNVVLLLTDDQDEVLGGMTPLKKTKALIGEMGMTFSSAYVPSALCCPSRASILTGKYPHNHHVVNNTLEGNCSSKSWQKIQEPNTFPAILRSMCGYQTFFAGKYLNEYGAPDAGGLEHVPLGWSYWYALEKNSKYYNYTLSINGKARKHGENYSVDYLTDVLANVSLDFLDYKSNFEPFFMMIATPAPHSPWTAAPQYQKAFQNVFAPRNKNFNIHGTNKHWLIRQAKTPMTNSSIQFLDNAFRKRWQTLLSVDDLVEKLVKRLEFTGELNNTYIFYTSDNGYHTGQFSLPIDKRQLYEFDIKVPLLVRGPGIKPNQTSKMLVANIDLGPTILDIAGYDLNKTQMDGMSLLPILRGASNLTWRSDVLVEYQGEGRNVTDPTCPSLSPGVSQCFPDCVCEDAYNNTYACVRTMSALWNLQYCEFDDQEVFVEVYNLTADPDQITNIAKTIDPELLGKMNYRLMMLQSCSGPTCRTPGVFDPGYRFDPRLMFSNRGSVRTRRFSKHLL
B4: lysosomal alpha-mannosidase (MA2B1) (enzyme, UniProt O00754 50-1011)
chain: GGYETCPTVQPNMLNVHLLPHTHDDVGWLKTVDQYFYGIKNDIQHAGVQYILDSVISALLADPTRRFIYVEIAFFSRWWHQQTNATQEVVRDLVRQGRLEFANGGWVMNDEAATHYGAIVDQMTLGLRFLEDTFGNDGRPRVAWHIDPFGHSREQASLFAQMGFDGFFFGRLDYQDKWVRMQKLEMEQVWRASTSLKPPTADLFTGVLPNGYNPPRNLCWDVLCVDQPLVEDPRSPEYNAKELVDYFLNVATAQGRYYRTNHTVMTMGSDFQYENANMWFKNLDKLIRLVNAQQAKGSSVHVLYSTPACYLWELNKANLTWSVKHDDFFPYADGPHQFWTGYFSSRPALKRYERLSYNFLQVCNQLEALVGLAANVGPYGSGDSAPLNEAMAVLQHHDAVSGTSRQHVANDYARQLAAGWGPCEVLLSNALARLRGFKDHFTFCQQLNISICPLSQTAARFQVIVYNPLGRKVNWMVRLPVSEGVFVVKDPNGRTVPSDVVIFPSSDSQAHPPELLFSASLPALGFSTYSVAQVPRWKPQARAPQPIPRRSWSPALTIENEHIRATFDPDTGLLMEIMNMNQQLLLPVRQTFFWYNASIGDNESDQASGAYIFRPNQQKPLPVSRWAQIHLVKTPLVQEVHQNFSAWCSQVVRLYPGQRHLELEWSVGPIPVGDTWGKEVISRFDTPLETKGRFYTDSNGREILERRRDYRPTWKLNQTEPVAGNYYPVNTRIYITDGNMQLTVLTDRSQGGSSLRDGSLELMVHRRLLKDDGRGVSEPLMENGSGAWVRGRHLVLLDTAQAAAAGHRLLAEQEVLAPQVVLAPGGGAAYNLGAPPRTQFSGLRRDLPPSVHLLTLASWGPEMVLLRLEHQFAVGEDSGRNLSAPVTLNLRDLFSTFTITRLQETTLVANQLREAASRLKWTTNTGPTPHQTPYQLDPANITLEPMEIRTFLASVQWKEVDG

target: IGF2ReGFP (cation independent mannose-6-phosphate receptor, CI-M6PR/IGF2R, fused to eGFP) (human (cloned from BeWo cDNA)) (UniProt P11717); assay: affinity purification with mass spectrometry; eluates of the same immunoprecipitates (TRPV6 antibody, GFP antibody, IgG controls) from TRPV6 and IGF2R transfected HEK cells; in-gel tryptic digest, label free LC-ESI-HRMS/MS, n = 3

binding, binds:
beta-hexosaminidase subunit beta (HEXB) (from UniProt P07686) (enzyme)
TRPV6mRFP (TRPV6 fused to mRFP) (from UniProt Q9H1D0 1-765)
B1
B2
B3
B4
